Source: PubChem BioAssay (NCATS)
Inconclusive results, whose numbers are uncertain, are shown with a selection of clear calls. Potencies of inconclusive entries are doubtful fits and often do not repeat. Activity calls are given as the source filed them. Calls follow the shape of the dose curve; as a rule, active = well fitted inhibition curve with a large enough effect; inconclusive = small, poorly fitted or top-dose-only effect; inactive = flat fitted curve, though single readings scatter.

Experiment: qHTS assay for small molecule disruptors of mitochondrial membrane potential screened against the NCATS CANVASS Library (AID 1347389); also: nearly all actives have a fitted effect of over 60% in size
Conditions: HepG2 mitochondrial membrane potential, m-MPI red/green ratio, 1.5 h; series mostly up to 46.1 µM; activity change, negative = depolarization: at the top concentration
Description: Natural products and their derivatives continue to be wellsprings of nascent therapeutic potential. However, many laboratories have limited resources for biological evaluation, leaving their previously isolated or synthesized compounds largely or completely untested. To address this issue, the Canvass library of natural products was assembled (https://tripod.nih.gov/canvass), in collaboration with academic and industry researchers, for quantitative high-throughput screening (qHTS) across a diverse set of cell-based and biochemical assays. The pure (>85% purity by liquid chromatography/mass spectrometry [LC/MS]) Canvass library of 346 natural products were submitted by 45 academic laboratories and companies around the world. We collected pure natural products to circumvent deconvolution and structure elucidation due to time and resource limitations. The library was formatted into 1536-well plates and evaluated in 50 qHTS (in an 11-pnt concentration series) bioassays with broad scope of disease-relevant mechanisms. The resulting data set from 50 different assays was then systematically analyzed to identify overall trends and specific natural products with interesting biological activities. Reported herein are the results of each individual qHTS and their corresponding assay protocol. In healthy cells, the mitochondria are polarized and mitochondrial-membrane potential indicator (m-MPI) accumulates in the mitochondria as red fluorescent aggregates (emission at 590 nm). As the mitochondrial membrane depolarizes, m-MPI red-colored J-aggregates are converted to green fluorescent monomers (emission at 535 nm) and released from mitochondria into the cytosol. In response to mitochondrial depolarization, the red-to-green fluorescence ratio decreases. National Center for Advancing Translational Sciences (NCATS), Rockville, MD National Institute of Health (NIH), Bethesda, Maryland
Mitochondrial membrane potential protocol: 2,000 HepG2 cells in 5 uL/well were dispensed into black, clear-bottom 1536-well plates using a Multidrop Combi (Thermo Scientific) dispenser. The assay plates were incubated overnight at 37C to allow cells to attach to the wells, followed by the transfer of 23 nL compound or DMSO vehicle by a pin tool (Kalypsys). The plates were incubated for 1 hr at 37C and 5% CO2, followed by the addition of 5 uL of 2X Mito-MPS dye (BD Biosciences) into each well using Flying Reagent Dispenser (Aurora Discovery) and then following 30 min incubation at 37C. Fluorescence intensity (490nm excitation and 535nm emission for monomers; and 540nm excitation and 590nm emissions for aggregates) was measured using an Envision plate reader.
% is scaled to controls: 0 for no effect and ±100 for the full control effect; potency is read from the fitted curve at half-maximal effect.

| SMILES | Potency | activity change, negative = depolarization |
| --- | --- | --- |
| C=C1CC[C@@H](Br)C(C)(C)[C@]12CC=C(C)C(=O)C2 | inconclusive: 37.1 µM [inhibitor, single point] |  |
| COC(=O)[C@@]1(C)CCC[C@]2(C)c3cc(OC)ccc3CC[C@@H]12 | inconclusive: 29.5 µM [inhibitor, single point] |  |
| COc1ccc([C@@H]2c3cc4c(cc3C[C@H](C)C2C)OCO4)cc1OC (stereo not given in full) | inconclusive: 37.1 µM [inhibitor, partial curve, poor fit] |  |
| CC1=C2CC[C@]3(C)[C@H](CC=C4[C@@H]5CC(C)(C)CC[C@@H]5C(=O)[C@H](O)[C@]43C)[C@@]2(C)C=C(O)C1=O | inconclusive: 18.6 µM [inhibitor, partial curve] |  |
| O=Cc1ccc2n1C[C@@]1(C[C@H](O)[C@H](O)CO1)OC2 |  | inactive: 17% |
| C=CC(CCCCC)C1C(=O)NC(=O)C1C(=O)C1C2C(C)CC(C(=O)O)CC2CC1(O)C(=O)/C=C/C (stereo not given) | inconclusive: 20.9 µM [inhibitor, single point] |  |
| COc1cc(C2C3=C(Cc4cc5c(cc42)OCO5)C(=O)OC3)cc(OC)c1OC (stereo not given) |  | inactive: -1.35% |
| C=C[C@]1(C)CC[C@@H]([C@H](C)C(=O)OCC)O1 | inconclusive: 16.3 µM [inhibitor, single point] |  |
| O=Cc1ccc2n1C[C@@]1(C[C@H](O)[C@@H](CO)O1)OC2 | inconclusive: 0.132 µM [inhibitor, single point] |  |
| COC(=O)c1cc2cc3c(c(O)c2c(=O)o1)OC1(CC3)CC2=C(O1)C(=O)c1c(O)c(OC)cc(OC)c1C2=O (stereo not given) | active: 3.31 µM |  |
| CC[C@H](O)CCCCC[C@@H]1NC(=O)[C@H]2CCCCN2C(=O)[C@H]([C@H](C)CC)NC(=O)[C@H](Cc2cn(OC)c3ccccc23)NC1=O | inconclusive: 37.1 µM [inhibitor, partial curve, poor fit] |  |
| C/C1=C/[C@@H](C)[C@H](O)C/C=C/CC/C=C/C(=O)O[C@@H]1[C@H](C)C(=O)/C=C/CC1CC(=O)NC(=O)C1 | inconclusive: 10.5 µM [inhibitor, partial curve] |  |
| CC(=O)NC[C@@H]1O[C@H](CC/C=C(C)/C(C)=C/C=O)[C@H](C)C[C@H]1O |  | inactive: 4.36% |
| CC(C)=CC[C@H]1C[C@@]2(CC=C(C)C)C(=O)[C@](CC=C(C)C)(C(=O)C(C(=O)c3ccccc3)=C2O)C1(C)C | active: 7.41 µM |  |
| CCCCCCCCCCCCCCC[C@H](O)C[C@@H](O)C[C@@H](O)C[C@@H](O)C[C@@H](O)C[C@H]1CC=CC(=O)O1 | inconclusive: 18.6 µM [inhibitor, single point] |  |
| C/C=C/c1cc2c(c(=O)o1)C(=O)[C@@H](O)[C@H](C)O2 |  | inactive: -6.3% |
| CC(C)=CCC/C(C)=C/Cc1c(O)c(CC=C(C)C)c(O)c2c(=O)c3cc(O)ccc3oc12 | active: 1.86 µM |  |
| C=C1C[C@H]2O[C@@H]3[C@@H]4[C@H](CC[C@@](C)(O)[C@@H]42)[C@H](C)COC3(C)[C@@H](OC(=O)CCCCCCC)C[C@H]1O (stereo not given in full) |  | inactive: 17.3% |
| CCCCCCC[C@@H](C/C=C/CCC(=O)NCCc1c[nH]c2ccccc12)OC | inconclusive: 37.1 µM [inhibitor, single point] |  |
| CN1CCc2cc3c(c4c2[C@H]1[C@@H](O)c1ccccc1-4)OCO3 | active: 11.7 µM |  |

| SMILES | Potency | activity change, negative = depolarization |
| --- | --- | --- |
| CCC[C@@H](C)/C=C(\C)[C@H](O)[C@H](C)/C=C/CC[C@@H](O)[C@H](C)[C@H](O)[C@H](C)[C@H](O)[C@H](C)[C@H]1O[C@H]([C@H](C)C(=O)O)CC[C@@H]1C | active: 20.9 µM |  |
| CO/C=C/C(=O)c1cc2cnc3c(N)cc(=NC(=O)C(C)C)c([nH]1)c23 | active: 3.31 µM |  |
| COc1c(O)cc(O)c2c(=O)cc(-c3ccccc3)oc12 | inconclusive: 0.417 µM [inhibitor, single point] |  |
| COc1ccc(CCCc2cc(O)c(OC)c(O)c2)c(O)c1O | inconclusive: 20.9 µM [inhibitor, partial curve] |  |
| COC1C(O)C(OC(N)=O)C(Oc2ccc3c(O)c(NC(=O)c4ccc(O)c(CC=C(C)C)c4)c(=O)oc3c2C)OC1(C)C (stereo not given) | inconclusive: 14.8 µM [inhibitor, partial curve, poor fit] |  |
| O=C(OC[C@H]1O[C@@H](OC(=O)c2cc(O)c(O)c(O)c2)[C@H](OC(=O)c2cc(O)c(O)c(O)c2)[C@@H](OC(=O)c2cc(O)c(O)c(O)c2)[C@@H]1OC(=O)c1cc(O)c(O)c(O)c1)c1cc(O)c(O)c(O)c1 | inconclusive: 26.3 µM [inhibitor, single point] |  |
| C=CC(=C)CC[C@]1(C)[C@H]2C[C@H](OC(=O)C(C)CC)C=C3[C@H](OC(C)=O)O[C@H](OC(C)=O)[C@@]32[C@H](OC)C[C@@H]1C (stereo not given in full) | active: 15.2 µM |  |
| C[n+]1cc2cc(C(N)=O)[nH]c3c(=N)c(Cl)c(N)c1c23 | inconclusive: 10.5 µM [inhibitor, partial curve] |  |
| CC[C@H]1[C@H](C)[C@H](c2cc(OC)c(OC)cc2OC)[C@@H](C)[C@H](c2cc(OC)c(OC)cc2OC)[C@@]12C=C(OC)C(=O)C=C2OC | inconclusive: 29.5 µM [inhibitor, single point] |  |
| COc1ccc(/C=C2\COc3cc(O)ccc3C2=O)cc1 | active: 20.9 µM |  |
| COC(=O)[C@@]12Oc3cccc(O)c3C(O)=C1C(=O)C[C@H](C)[C@H]2O |  | inactive: -2.03% [at 91.4 µM] |
| C=C(Cl)[C@](Cl)(CBr)CC[C@@H](Br)C(C)(C)Cl |  | inactive: -25.9% |
| COc1ccc([C@@H]2CC(=O)c3c(cc(O)c(C/C=C(\C)CCC=C(C)C)c3O)O2)cc1 | active: 3.84 µM |  |
| C=C1C[C@H]2O[C@@H]3[C@@H]4[C@H](CC[C@@](C)(O)[C@@H]42)[C@H](C)COC3(C)[C@@H](OC(=O)CCCCCCC)CC1=O (stereo not given in full) | inconclusive: 37.1 µM [inhibitor, partial curve, poor fit] |  |
| CC(C)=CCC[C@@H](C)[C@@H]1CC[C@@]2(C)C[C@H]3C(C)=CC(=O)[C@@H]3/C(C=O)=C\C[C@H]12 | inconclusive: 37.1 µM [inhibitor, single point] |  |
| CC[C@@H]1[C@H](C)[C@H](c2cc(OC)c(OC)cc2OC)[C@@H](C)[C@H](c2cc(OC)c(OC)cc2OC)[C@]12C=C(OC)C(=O)C=C2OC | inconclusive: 26.3 µM [inhibitor, single point] |  |
| COc1cc(O)c2c3c(c(O)cc(C)c13)C(=O)OC2 | active: 18.6 µM |  |
| Oc1ccc(C2Oc3cc(O)c4c(c3[C@@H]2c2cc(O)cc(O)c2)[C@H]2C(c3ccc(O)cc3)c3c(O)cc5c(c3[C@H]2C4c2ccc(O)cc2)[C@H](c2cc(O)cc(O)c2)C(c2ccc(O)cc2)O5)cc1 (stereo not given in full) | inconclusive: 7.41 µM [inhibitor, full curve] |  |
| COc1ccc(-c2oc3cc(OC)cc(OC)c3c(=O)c2O)cc1 |  | inactive: -25.8% |
| CC[C@H]1[C@@H](C)[C@@H](c2cc(OC)c(OC)cc2OC)[C@H](C)[C@@H](c2cc(OC)c(OC)cc2OC)[C@@]12C=C(OC)C(=O)C=C2OC | inconclusive: 37.1 µM [inhibitor, single point] |  |

As a short view, some entries already given:

| SMILES | Potency | activity change, negative = depolarization |
| --- | --- | --- |
| C=C(Cl)[C@](Cl)(CBr)CC[C@@H](Br)C(C)(C)Cl |  | inactive: -25.9% |
| COc1ccc([C@@H]2CC(=O)c3c(cc(O)c(C/C=C(\C)CCC=C(C)C)c3O)O2)cc1 | active: 3.84 µM |  |
